Source: patent WO2008020596A2
These are yes or no findings as the source states them, for the method shown. Binding seen in cells or lysates may run through a third protein. Some binding calls cover weakened binding; strength is not graded here.

The chains behind the UniProt entries cited, without tags or fusion partners. Where a name states a change or a piece, a line headed by the entry shows the natural chain unless it says otherwise.
UniProt P28340: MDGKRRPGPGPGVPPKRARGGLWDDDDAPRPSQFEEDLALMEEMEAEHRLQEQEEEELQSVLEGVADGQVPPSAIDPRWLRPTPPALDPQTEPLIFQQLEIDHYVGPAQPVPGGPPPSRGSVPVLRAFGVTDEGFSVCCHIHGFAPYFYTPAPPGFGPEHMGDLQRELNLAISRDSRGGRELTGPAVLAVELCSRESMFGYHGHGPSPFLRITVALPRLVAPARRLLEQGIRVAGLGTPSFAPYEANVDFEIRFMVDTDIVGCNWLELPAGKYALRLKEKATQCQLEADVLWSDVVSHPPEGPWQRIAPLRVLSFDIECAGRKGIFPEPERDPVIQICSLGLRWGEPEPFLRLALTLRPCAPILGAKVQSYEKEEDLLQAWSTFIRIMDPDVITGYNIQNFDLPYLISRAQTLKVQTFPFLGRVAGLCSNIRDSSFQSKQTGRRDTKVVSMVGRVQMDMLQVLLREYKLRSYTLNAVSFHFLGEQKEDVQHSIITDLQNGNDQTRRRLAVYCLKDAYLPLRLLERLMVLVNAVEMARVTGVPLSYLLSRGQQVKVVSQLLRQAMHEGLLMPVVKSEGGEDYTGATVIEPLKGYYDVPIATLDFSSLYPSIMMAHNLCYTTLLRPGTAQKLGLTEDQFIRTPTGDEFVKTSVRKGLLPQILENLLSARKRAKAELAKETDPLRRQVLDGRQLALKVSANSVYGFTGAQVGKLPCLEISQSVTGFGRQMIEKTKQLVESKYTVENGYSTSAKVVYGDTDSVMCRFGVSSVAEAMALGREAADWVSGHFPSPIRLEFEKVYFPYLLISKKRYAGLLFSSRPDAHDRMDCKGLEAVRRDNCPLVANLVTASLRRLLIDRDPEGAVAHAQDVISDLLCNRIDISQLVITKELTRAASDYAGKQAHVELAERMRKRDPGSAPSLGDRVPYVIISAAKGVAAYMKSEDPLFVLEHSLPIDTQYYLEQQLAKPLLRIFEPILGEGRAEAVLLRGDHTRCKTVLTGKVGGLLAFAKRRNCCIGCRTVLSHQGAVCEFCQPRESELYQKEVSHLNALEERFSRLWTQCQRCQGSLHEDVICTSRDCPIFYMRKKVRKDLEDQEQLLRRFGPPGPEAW
UniProt P39748: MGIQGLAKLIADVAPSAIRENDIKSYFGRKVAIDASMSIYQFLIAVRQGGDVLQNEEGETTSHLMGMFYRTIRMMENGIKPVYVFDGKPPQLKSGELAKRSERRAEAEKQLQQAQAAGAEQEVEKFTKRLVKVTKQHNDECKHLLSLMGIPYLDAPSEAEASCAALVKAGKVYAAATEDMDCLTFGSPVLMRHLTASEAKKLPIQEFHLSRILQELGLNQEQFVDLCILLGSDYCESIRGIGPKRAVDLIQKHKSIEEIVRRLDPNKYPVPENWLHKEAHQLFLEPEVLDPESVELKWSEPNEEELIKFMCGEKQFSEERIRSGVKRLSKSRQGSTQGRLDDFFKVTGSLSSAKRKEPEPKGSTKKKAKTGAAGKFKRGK
UniProt Q15004: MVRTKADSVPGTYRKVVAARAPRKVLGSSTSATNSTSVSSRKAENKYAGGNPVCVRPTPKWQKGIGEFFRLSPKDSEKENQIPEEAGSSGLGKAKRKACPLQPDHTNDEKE

Key:
[1] = target: POLD1 (polymerase delta p125 subunit) (UniProt P28340); assay: co-immunoprecipitation from cancer cell lysate with anti-KIAA0101 polyclonal antibody, MALDI-TOF identification, confirmed by immunoprecipitation
[2] = target: FEN1 (flap endonuclease-1) (UniProt P39748); assay: as above
[3] = target: POLD1 (polymerase delta p125 subunit) (UniProt P28340); assay: co-immunoprecipitation from cancer cell lysate, MALDI-TOF identification, confirmed by immunoprecipitation (Fig. 12)
[4] = target: FEN1 (flap endonuclease-1) (UniProt P39748); assay: as above

binding [1]: binds
binding [2]: binds
binding [3]: binds
binding [4]: binds
Substance: KIAA0101 protein (p15PAF, PCNA-associated factor) (from UniProt Q15004 1-111)
